# Source: the supplement of paper PMC8728848
# This is one part of the list.
# B1: ERGIC1-EDTA (Homo sapiens), Q969X5 (protein)
# chain: MKFLVNVALVFMVVYISYIYAAAHMHHHHHHDYDIPTTENLYFQGSEVVNELYVDDPDKDSGGKIDVSLNISLPNLHCELVGLDIQDEMGRHEVGHIDNSMKIPLNNGAGCRFEGQFSINKVPGNFHVSTHSATAQPQNPDMTHVIHKLSFGDTLQVQNIHGAFNALGGADRLTSNPLASHDYILKIVPTVYEDKSGKQRYSYQYTVANKEYVAYSHTGRIIPAIWFRYDLSPITVKYTE
# Legend:
# Experiment in all cases: glycan array binding signal (z-score within array); higher = stronger binding
# Conditions in all cases: glycan notation: IUPAC condensed, linker removed
# [1] = target: Fuc(a1-2)Gal(b1-4)GlcNAc(b1-3)Gal(b1-4)GlcNAc(b1-2)Man(a1-3)[Fuc(a1-2)Gal(b1-4)GlcNAc(b1-3)Gal(b1-4)GlcNAc(b1-2)Man(a1-6)]Man(b1-4)GlcNAc(b1-4)GlcNAc
# Summary of the method: (§1)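 Columns mapping to the same glycan were averaged after glycan names were converted to IUPAC-condensed notation. The data come from 3228 arrays in the Consortium for Functional Glycomics database, limited to those with an available protein sequence. Binding is reported as a within-array Z-score averaged across arrays of one protein sequence and across linkers.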
# [2] = target: Fuc(a1-2)Gal(b1-4)GlcNAc(b1-3)Gal(b1-4)GlcNAc(b1-3)Gal(b1-4)GlcNAc
# Summary of the method: as §1
# [3] = target: Fuc(a1-2)Gal(b1-4)GlcNAc(b1-3)GalNAc
# Summary of the method: as §1
# [4] = target: Fuc(a1-2)Gal(b1-4)GlcNAc(b1-3)[Fuc(a1-2)Gal(b1-4)GlcNAc(b1-6)]GalNAc
# Summary of the method: as §1
# [5] = target: Fuc(a1-2)Gal(b1-4)GlcNAc(b1-3)[Fuc(a1-3)[Gal(b1-4)]GlcNAc(b1-6)]Gal(b1-4)Glc
# Summary of the method: as §1
# [6] = target: Fuc(a1-2)Gal(b1-4)GlcNAc(b1-6)GalNAc
# Summary of the method: as §1
# [7] = target: Fuc(a1-2)Gal(b1-4)GlcNAc6S
# Summary of the method: as §1
# [8] = target: Fuc(a1-2)Gal(b1-4)[Fuc(a1-3)]GlcNAc
# Summary of the method: as §1
# [9] = target: Fuc(a1-2)Gal(b1-4)[Fuc(a1-3)]GlcNAc(b1-2)Man(a1-3)[Fuc(a1-2)Gal(b1-4)[Fuc(a1-3)]GlcNAc(b1-2)Man(a1-6)]Man(b1-4)GlcNAc(b1-4)[Fuc(a1-6)]GlcNAc
# Summary of the method: as §1
# [10] = target: Fuc(a1-2)Gal(b1-4)[Fuc(a1-3)]GlcNAc(b1-2)[Fuc(a1-2)Gal(b1-4)[Fuc(a1-3)]GlcNAc(b1-4)]Man(a1-3)[Fuc(a1-2)Gal(b1-4)[Fuc(a1-3)]GlcNAc(b1-2)Man(a1-6)]Man(b1-4)GlcNAc(b1-4)GlcNAc
# Summary of the method: as §1
# [11] = target: Fuc(a1-2)Gal(b1-4)[Fuc(a1-3)]GlcNAc(b1-3)Gal(b1-4)[Fuc(a1-3)]GlcNAc
# Summary of the method: as §1
# [12] = target: Fuc(a1-2)Gal(b1-4)[Fuc(a1-3)]GlcNAc(b1-3)Gal(b1-4)[Fuc(a1-3)]GlcNAc(b1-3)Gal(b1-4)[Fuc(a1-3)]GlcNAc
# Summary of the method: as §1
# [13] = target: Fuc(a1-2)Gal(b1-4)[Fuc(a1-3)]GlcNAc(b1-3)GalNAc
# Summary of the method: as §1
# [14] = target: Fuc(a1-2)Gal(b1-4)[Fuc(a1-3)]GlcNAc(b1-3)[Neu5Ac(a2-6)Gal(b1-4)GlcNAc(b1-6)]Gal(b1-4)Glc
# Summary of the method: as §1
# [15] = target: Fuc(a1-2)Gal3S(b1-4)GlcNAc
# Summary of the method: as §1
# [16] = target: Fuc(a1-2)Gal6S(b1-3)GlcNAc
# Summary of the method: as §1
# [17] = target: Fuc(a1-2)Gal6S(b1-3)GlcNAc6S
# Summary of the method: as §1
# Fuc(a1-2)Gal6S(b1-4)Glc = target: Fuc(a1-2)Gal6S(b1-4)Glc
# Summary of the method: as §1
# [18] = target: Fuc(a1-2)Gal6S(b1-4)Glc6S
# Summary of the method: as §1
# Fuc(a1-2)[Gal(a1-3)]Gal = target: Fuc(a1-2)[Gal(a1-3)]Gal
# Summary of the method: as §1
# [19] = target: Fuc(a1-2)[Gal(a1-3)]Gal(b1-3)GalNAc
# Summary of the method: as §1
# [20] = target: Fuc(a1-2)[Gal(a1-3)]Gal(b1-3)GalNAc(b1-3)Gal(a1-4)Gal(b1-4)Glc
# Summary of the method: as §1
# [21] = target: Fuc(a1-2)[Gal(a1-3)]Gal(b1-3)GlcNAc
# Summary of the method: as §1
# [22] = target: Fuc(a1-2)[Gal(a1-3)]Gal(b1-3)GlcNAc(b1-2)Man(a1-3)[Fuc(a1-2)[Gal(a1-3)]Gal(b1-3)GlcNAc(b1-2)Man(a1-6)]Man(b1-4)GlcNAc(b1-4)GlcNAc
# Summary of the method: as §1
# [23] = target: Fuc(a1-2)[Gal(a1-3)]Gal(b1-3)GlcNAc(b1-2)Man(a1-3)[Fuc(a1-2)[Gal(a1-3)]Gal(b1-3)GlcNAc(b1-2)Man(a1-6)]Man(b1-4)GlcNAc(b1-4)[Fuc(a1-6)]GlcNAc
# Summary of the method: as §1
# [24] = target: Fuc(a1-2)[Gal(a1-3)]Gal(b1-3)GlcNAc(b1-3)GalNAc
# Summary of the method: as §1
# [25] = target: Fuc(a1-2)[Gal(a1-3)]Gal(b1-3)GlcNAc(b1-6)GalNAc
# Summary of the method: as §1
# [26] = target: Fuc(a1-2)[Gal(a1-3)]Gal(b1-4)Glc
# Summary of the method: as §1
# [27] = target: Fuc(a1-2)[Gal(a1-3)]Gal(b1-4)GlcNAc
# Summary of the method: as §1
# [28] = target: Fuc(a1-2)[Gal(a1-3)]Gal(b1-4)GlcNAc(b1-2)Man
# Summary of the method: as §1
binder,measurement,setting,value
B1,glycan array binding signal (z-score),[1],0.594
same,glycan array binding signal (z-score),[2],0.515
same,glycan array binding signal (z-score),[3],1.23
same,glycan array binding signal (z-score),[4],-0.42
same,glycan array binding signal (z-score),[5],-0.12
same,glycan array binding signal (z-score),[6],1.3
same,glycan array binding signal (z-score),[7],-0.213
same,glycan array binding signal (z-score),[8],-0.181
same,glycan array binding signal (z-score),[9],-0.009
same,glycan array binding signal (z-score),[10],1.07
same,glycan array binding signal (z-score),[11],0.599
same,glycan array binding signal (z-score),[12],0.112
same,glycan array binding signal (z-score),[13],0.086
same,glycan array binding signal (z-score),[14],-0.254
same,glycan array binding signal (z-score),[15],-0.898
same,glycan array binding signal (z-score),[16],-0.66
same,glycan array binding signal (z-score),[17],0.311
same,glycan array binding signal (z-score),Fuc(a1-2)Gal6S(b1-4)Glc,1.11
same,glycan array binding signal (z-score),[18],-0.133
same,glycan array binding signal (z-score),Fuc(a1-2)[Gal(a1-3)]Gal,-0.808
same,glycan array binding signal (z-score),[19],-0.427
same,glycan array binding signal (z-score),[20],-1.14
same,glycan array binding signal (z-score),[21],-0.706
same,glycan array binding signal (z-score),[22],-0.168
same,glycan array binding signal (z-score),[23],0.778
same,glycan array binding signal (z-score),[24],0.708
same,glycan array binding signal (z-score),[25],0.046
same,glycan array binding signal (z-score),[26],0.37
same,glycan array binding signal (z-score),[27],-0.089
same,glycan array binding signal (z-score),[28],0.546

# Some of the entries above in a different format.
binder	measurement	setting	value
B1	glycan array binding signal (z-score)	Fuc(a1-2)[Gal(a1-3)]Gal	-0.808
same	glycan array binding signal (z-score)	[19]	-0.427
